{"source": "PubChem BioAssay AID1671195 (Yale University, 2021)", "aim": "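Genes whose knockdown alters LDL uptake in liver cancer cells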 (primary screen)", "system": "human Huh7 hepatoma cells", "knock-down reagent": "siRNA pool against human genes, 18 nM", "timing": "about 2 to 2.5 days of knockdown, then 8 h LDL uptake", "treatment": "DiI-labelled LDL at 30 µg/ml for 8 h, in lipoprotein-deficient serum medium", "read-out": "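Per-cell DiI-LDL intensity by automated imaging; well means scaled to the plate median and given as a robust z-score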", "direction": "robust z-score: higher = more LDL uptake after knockdown", "rule for the call": "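Active when two or more replicates show a robust z-score above 2 or below -2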", "note": "The deposit covers about 22,000 reagents; shown is a part drawn at random. About 1,510 of all reagents (6.9%) count as active. 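Active includes knockdowns raising or lowering LDL uptake; positive z-scores mean more uptake, negative mean less.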 Unmarked entries are inactive."}
{"target gene": "GPR65 (G protein-coupled receptor 65)", "robust z-score, replicate 1": 1.4, "robust z-score, replicate 2": 0.28, "robust z-score, replicate 3": 1.2}
{"target gene": "BCAM (basal cell adhesion molecule (Lutheran blood group))", "robust z-score, replicate 1": 0.13, "robust z-score, replicate 2": -0.497, "robust z-score, replicate 3": 0.236}
{"target gene": "CA5B (carbonic anhydrase 5B)", "robust z-score, replicate 1": 0.878, "robust z-score, replicate 2": 1.3, "robust z-score, replicate 3": 0.297}
{"target gene": "COA5 (cytochrome c oxidase assembly factor 5)", "robust z-score, replicate 1": 0.523, "robust z-score, replicate 2": -0.73, "robust z-score, replicate 3": -0.54}
{"target gene": "LOC389328 (retired record)", "robust z-score, replicate 1": -0.642, "robust z-score, replicate 2": -0.143, "robust z-score, replicate 3": -0.607}
{"target gene": "UCP1 (uncoupling protein 1)", "robust z-score, replicate 1": -0.502, "robust z-score, replicate 2": -0.751, "robust z-score, replicate 3": -0.413}
{"target gene": "SLC19A2", "robust z-score, replicate 1": -0.104, "robust z-score, replicate 2": 0.0359, "robust z-score, replicate 3": 0.0648}
{"target gene": "OTULINL (OTU deubiquitinase with linear linkage specificity like)", "robust z-score, replicate 1": -0.521, "robust z-score, replicate 2": -1.08, "robust z-score, replicate 3": -0.533}
{"target gene": "TARS1 (threonyl-tRNA synthetase 1)", "robust z-score, replicate 1": -0.747, "robust z-score, replicate 2": -0.173, "robust z-score, replicate 3": -0.696}
{"target gene": "ZDHHC9 (zDHHC palmitoyltransferase 9)", "robust z-score, replicate 1": 0.171, "robust z-score, replicate 2": -0.0872, "robust z-score, replicate 3": 0.107}
{"target gene": "SLC46A3", "robust z-score, replicate 1": 0.0655, "robust z-score, replicate 2": 0.189, "robust z-score, replicate 3": 0.0936}
{"target gene": "MAP4K3 (mitogen-activated protein kinase kinase kinase kinase 3)", "robust z-score, replicate 1": 1.94, "robust z-score, replicate 2": -0.25, "robust z-score, replicate 3": 0.531}
{"target gene": "ZNF837 (zinc finger protein 837)", "robust z-score, replicate 1": -1.69, "robust z-score, replicate 2": -1.35, "robust z-score, replicate 3": -1.18}

Continued (2 carried over from the part before).
{"target gene": "MAP4K3 (mitogen-activated protein kinase kinase kinase kinase 3)", "robust z-score, replicate 1": 1.94, "robust z-score, replicate 2": -0.25, "robust z-score, replicate 3": 0.531}
{"target gene": "ZNF837 (zinc finger protein 837)", "robust z-score, replicate 1": -1.69, "robust z-score, replicate 2": -1.35, "robust z-score, replicate 3": -1.18}
{"target gene": "DDX41 (DEAD-box helicase 41)", "robust z-score, replicate 1": 1.02, "robust z-score, replicate 2": 1.69, "robust z-score, replicate 3": 1.64}
{"target gene": "MBOAT2 (membrane bound glycerophospholipid O-acyltransferase 2)", "robust z-score, replicate 1": -0.519, "robust z-score, replicate 2": 0.438, "robust z-score, replicate 3": -0.78}
{"target gene": "HADH (hydroxyacyl-CoA dehydrogenase)", "robust z-score, replicate 1": 0.75, "robust z-score, replicate 2": 1.24, "robust z-score, replicate 3": 1.5}
{"target gene": "LOC389846 (retired record)", "robust z-score, replicate 1": -0.235, "robust z-score, replicate 2": -0.194, "robust z-score, replicate 3": 0.173}
{"target gene": "TMCO4 (transmembrane and coiled-coil domains 4)", "robust z-score, replicate 1": -0.758, "robust z-score, replicate 2": -0.662, "robust z-score, replicate 3": -0.846}
{"target gene": "PNPLA3", "robust z-score, replicate 1": -0.692, "robust z-score, replicate 2": -0.6, "robust z-score, replicate 3": -0.678}
{"target gene": "GUSBP5 (GUSB pseudogene 5)", "robust z-score, replicate 1": -0.679, "robust z-score, replicate 2": -0.987, "robust z-score, replicate 3": -0.862}
{"target gene": "SOWAHB (sosondowah ankyrin repeat domain family member B)", "robust z-score, replicate 1": -0.727, "robust z-score, replicate 2": -0.572, "robust z-score, replicate 3": -0.154}
{"target gene": "MLLT10 (MLLT10 histone lysine methyltransferase DOT1L cofactor)", "robust z-score, replicate 1": 1.18, "robust z-score, replicate 2": 1.87, "robust z-score, replicate 3": 0.443}
{"target gene": "TEAD2 (TEA domain transcription factor 2)", "robust z-score, replicate 1": 1.33, "robust z-score, replicate 2": 1.17, "robust z-score, replicate 3": 1.4}
{"target gene": "UBN1 (ubinuclein 1)", "robust z-score, replicate 1": 1.46, "robust z-score, replicate 2": 0.18, "robust z-score, replicate 3": 1.55}
